Binding data for one substance are collected here from doi:10.1101/843219.

Protein sequences, listed by entry. Tags and fused reporters are not part of them.
UniProt Q6ZPE2: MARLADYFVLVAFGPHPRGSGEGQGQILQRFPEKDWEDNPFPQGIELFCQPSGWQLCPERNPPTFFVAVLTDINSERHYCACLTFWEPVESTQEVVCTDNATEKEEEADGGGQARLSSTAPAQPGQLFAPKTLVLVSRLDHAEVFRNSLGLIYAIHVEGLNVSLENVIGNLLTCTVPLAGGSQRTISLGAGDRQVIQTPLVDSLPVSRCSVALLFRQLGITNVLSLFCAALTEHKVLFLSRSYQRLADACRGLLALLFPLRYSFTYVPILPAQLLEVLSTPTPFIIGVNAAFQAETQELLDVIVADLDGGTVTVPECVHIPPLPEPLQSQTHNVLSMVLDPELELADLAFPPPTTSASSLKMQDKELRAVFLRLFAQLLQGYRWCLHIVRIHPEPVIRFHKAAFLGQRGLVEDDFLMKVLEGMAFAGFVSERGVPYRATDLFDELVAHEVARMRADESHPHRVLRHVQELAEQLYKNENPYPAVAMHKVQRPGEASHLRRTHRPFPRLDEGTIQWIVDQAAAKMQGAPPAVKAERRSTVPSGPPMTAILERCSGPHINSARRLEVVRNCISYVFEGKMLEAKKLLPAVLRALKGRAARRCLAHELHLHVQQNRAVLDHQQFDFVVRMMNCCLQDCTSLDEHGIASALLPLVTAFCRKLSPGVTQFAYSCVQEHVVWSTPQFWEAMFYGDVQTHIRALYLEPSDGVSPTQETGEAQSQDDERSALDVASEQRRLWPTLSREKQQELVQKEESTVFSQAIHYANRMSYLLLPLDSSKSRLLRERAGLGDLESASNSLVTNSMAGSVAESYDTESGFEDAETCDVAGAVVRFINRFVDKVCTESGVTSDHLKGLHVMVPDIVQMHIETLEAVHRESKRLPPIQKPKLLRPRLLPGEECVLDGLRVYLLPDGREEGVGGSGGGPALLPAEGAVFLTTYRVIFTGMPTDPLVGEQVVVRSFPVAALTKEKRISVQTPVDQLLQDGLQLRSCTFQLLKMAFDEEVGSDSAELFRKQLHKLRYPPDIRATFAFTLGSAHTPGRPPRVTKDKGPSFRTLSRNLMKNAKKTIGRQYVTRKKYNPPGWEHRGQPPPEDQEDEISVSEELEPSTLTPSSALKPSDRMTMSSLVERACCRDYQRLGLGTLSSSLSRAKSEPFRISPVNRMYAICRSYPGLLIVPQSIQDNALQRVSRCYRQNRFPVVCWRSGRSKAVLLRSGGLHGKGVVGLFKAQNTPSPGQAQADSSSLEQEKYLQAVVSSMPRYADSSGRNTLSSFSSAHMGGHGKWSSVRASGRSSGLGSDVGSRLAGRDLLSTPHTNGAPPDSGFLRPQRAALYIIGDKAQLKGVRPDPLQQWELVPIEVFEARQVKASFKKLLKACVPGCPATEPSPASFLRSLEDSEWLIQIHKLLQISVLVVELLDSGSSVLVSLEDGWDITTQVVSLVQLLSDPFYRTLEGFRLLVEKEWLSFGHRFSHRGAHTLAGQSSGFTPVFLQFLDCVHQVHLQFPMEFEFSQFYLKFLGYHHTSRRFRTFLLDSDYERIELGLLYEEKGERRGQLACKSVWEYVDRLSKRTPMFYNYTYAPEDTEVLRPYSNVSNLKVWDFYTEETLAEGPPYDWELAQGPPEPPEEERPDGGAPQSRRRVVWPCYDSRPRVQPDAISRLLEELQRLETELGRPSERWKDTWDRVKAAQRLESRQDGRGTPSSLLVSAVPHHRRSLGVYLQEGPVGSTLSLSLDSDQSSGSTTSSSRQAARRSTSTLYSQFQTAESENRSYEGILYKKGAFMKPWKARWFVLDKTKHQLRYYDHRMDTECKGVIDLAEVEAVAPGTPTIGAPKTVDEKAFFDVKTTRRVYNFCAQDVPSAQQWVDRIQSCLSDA
UniProt E9PXF8: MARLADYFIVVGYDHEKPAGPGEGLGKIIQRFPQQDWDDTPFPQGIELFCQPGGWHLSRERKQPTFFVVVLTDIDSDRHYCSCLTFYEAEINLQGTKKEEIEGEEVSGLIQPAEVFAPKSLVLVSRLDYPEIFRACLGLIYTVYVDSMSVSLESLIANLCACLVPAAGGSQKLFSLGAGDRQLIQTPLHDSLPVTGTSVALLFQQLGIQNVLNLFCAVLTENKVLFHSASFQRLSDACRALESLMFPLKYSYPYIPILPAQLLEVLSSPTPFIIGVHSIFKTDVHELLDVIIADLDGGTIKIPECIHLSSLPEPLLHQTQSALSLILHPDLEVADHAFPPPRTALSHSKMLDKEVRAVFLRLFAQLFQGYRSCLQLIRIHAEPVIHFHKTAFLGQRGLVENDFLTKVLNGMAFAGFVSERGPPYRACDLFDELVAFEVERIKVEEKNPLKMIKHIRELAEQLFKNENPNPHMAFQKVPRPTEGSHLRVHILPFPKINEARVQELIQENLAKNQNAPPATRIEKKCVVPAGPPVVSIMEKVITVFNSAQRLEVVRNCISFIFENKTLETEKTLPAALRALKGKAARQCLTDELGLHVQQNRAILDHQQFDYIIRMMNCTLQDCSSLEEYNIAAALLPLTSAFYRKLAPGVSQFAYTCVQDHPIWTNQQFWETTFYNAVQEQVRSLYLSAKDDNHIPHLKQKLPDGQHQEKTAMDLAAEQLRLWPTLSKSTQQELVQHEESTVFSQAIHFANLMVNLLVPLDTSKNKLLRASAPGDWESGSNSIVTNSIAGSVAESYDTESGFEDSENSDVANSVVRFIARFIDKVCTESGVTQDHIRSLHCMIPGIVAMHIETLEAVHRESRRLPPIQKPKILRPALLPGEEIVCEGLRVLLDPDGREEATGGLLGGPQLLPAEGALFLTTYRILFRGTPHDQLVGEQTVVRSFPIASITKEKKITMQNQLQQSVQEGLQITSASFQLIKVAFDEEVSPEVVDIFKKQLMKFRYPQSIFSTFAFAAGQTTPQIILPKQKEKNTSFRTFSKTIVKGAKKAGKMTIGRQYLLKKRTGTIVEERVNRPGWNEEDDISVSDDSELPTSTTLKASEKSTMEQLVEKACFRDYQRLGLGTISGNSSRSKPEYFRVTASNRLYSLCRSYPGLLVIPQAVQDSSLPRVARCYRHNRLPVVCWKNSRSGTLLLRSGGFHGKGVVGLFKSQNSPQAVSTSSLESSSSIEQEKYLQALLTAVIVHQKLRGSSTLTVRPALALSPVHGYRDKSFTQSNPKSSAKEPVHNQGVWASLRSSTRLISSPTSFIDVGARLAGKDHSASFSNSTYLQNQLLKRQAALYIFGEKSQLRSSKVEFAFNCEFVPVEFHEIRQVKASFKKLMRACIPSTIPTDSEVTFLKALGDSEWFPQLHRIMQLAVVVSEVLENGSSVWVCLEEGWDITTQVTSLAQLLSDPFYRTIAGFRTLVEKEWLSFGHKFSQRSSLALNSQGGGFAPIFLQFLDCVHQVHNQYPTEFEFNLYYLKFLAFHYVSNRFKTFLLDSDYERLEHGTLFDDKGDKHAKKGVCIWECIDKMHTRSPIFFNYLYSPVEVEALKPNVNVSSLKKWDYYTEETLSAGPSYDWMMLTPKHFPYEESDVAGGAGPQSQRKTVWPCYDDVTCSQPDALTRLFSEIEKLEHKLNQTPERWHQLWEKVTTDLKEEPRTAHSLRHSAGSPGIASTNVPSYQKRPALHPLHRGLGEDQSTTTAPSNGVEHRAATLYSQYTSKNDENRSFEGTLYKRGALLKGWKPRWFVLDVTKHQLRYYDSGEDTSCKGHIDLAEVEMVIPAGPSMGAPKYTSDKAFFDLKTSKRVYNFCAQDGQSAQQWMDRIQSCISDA

This test deals with Mtmr5 (endogenous, mouse brain) (mouse (endogenous in brain)) (UniProt Q6ZPE2). As to the kind of experiment: co-IP.

No constants are given. Whether binding was seen depends on the method and setting. Binding seen in cells or lysates may run through a third protein. Some entries that bind do so weakly or less than the wild type.

Consider “Mtmr13 (endogenous, mouse brain) (from UniProt E9PXF8 1-1872)”, for which the binding entry is listed as “binds weakly”.
